Experimental data taken from publication PMC11176079.
Changes are numbered by the printed parent chain. No constants are given. Whether binding was seen depends on the method and setting. In cells and extracts the contact can be indirect. Some results given as binding are weak or reduced against the parent protein; the word gives no strength.

Sequences of proteins named here, by UniProt entry; tags and fusion partners are left off. Residues count along the entry.
UniProt P23385, residues 19-1199: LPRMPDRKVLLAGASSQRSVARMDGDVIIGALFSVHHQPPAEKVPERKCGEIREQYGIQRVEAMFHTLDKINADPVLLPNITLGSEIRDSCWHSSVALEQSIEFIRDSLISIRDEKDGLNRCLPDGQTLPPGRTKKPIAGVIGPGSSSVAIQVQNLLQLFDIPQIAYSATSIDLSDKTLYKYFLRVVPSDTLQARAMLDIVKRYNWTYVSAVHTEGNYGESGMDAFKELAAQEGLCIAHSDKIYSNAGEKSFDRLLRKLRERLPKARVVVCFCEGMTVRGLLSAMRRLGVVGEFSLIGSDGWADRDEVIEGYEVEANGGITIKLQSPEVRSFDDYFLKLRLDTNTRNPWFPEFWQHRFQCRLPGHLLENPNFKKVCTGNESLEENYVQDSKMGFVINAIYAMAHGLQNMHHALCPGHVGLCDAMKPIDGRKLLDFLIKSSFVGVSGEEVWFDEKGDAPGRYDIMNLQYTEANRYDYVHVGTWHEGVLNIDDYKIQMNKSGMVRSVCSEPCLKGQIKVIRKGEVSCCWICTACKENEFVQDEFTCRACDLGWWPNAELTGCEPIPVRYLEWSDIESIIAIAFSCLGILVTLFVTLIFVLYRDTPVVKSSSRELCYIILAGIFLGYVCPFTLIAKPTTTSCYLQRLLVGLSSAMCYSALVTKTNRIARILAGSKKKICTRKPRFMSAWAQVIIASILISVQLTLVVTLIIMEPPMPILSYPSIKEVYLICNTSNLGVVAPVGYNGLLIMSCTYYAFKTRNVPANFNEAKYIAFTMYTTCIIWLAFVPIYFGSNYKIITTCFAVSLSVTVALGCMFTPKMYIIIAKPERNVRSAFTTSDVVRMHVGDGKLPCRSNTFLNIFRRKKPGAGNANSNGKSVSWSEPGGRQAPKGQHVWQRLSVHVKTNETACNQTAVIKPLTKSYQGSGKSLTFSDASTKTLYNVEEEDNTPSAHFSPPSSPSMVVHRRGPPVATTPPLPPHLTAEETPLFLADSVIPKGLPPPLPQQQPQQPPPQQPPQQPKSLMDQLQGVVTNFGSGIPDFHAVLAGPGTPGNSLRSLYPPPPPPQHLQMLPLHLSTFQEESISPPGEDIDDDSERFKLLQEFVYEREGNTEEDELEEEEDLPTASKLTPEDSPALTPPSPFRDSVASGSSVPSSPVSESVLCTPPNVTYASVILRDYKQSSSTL

Assays:
Assay in all cases: co-IP; mGlu1 and GluD1 (WT or mutant) co-expressed in HEK cells; membrane protein extraction, immunoprecipitation, western blotting
GluD1^T752M (mouse) = biological target: T1, GluD1^T752M (mouse) (UniProt Q61627)
T1 sequence: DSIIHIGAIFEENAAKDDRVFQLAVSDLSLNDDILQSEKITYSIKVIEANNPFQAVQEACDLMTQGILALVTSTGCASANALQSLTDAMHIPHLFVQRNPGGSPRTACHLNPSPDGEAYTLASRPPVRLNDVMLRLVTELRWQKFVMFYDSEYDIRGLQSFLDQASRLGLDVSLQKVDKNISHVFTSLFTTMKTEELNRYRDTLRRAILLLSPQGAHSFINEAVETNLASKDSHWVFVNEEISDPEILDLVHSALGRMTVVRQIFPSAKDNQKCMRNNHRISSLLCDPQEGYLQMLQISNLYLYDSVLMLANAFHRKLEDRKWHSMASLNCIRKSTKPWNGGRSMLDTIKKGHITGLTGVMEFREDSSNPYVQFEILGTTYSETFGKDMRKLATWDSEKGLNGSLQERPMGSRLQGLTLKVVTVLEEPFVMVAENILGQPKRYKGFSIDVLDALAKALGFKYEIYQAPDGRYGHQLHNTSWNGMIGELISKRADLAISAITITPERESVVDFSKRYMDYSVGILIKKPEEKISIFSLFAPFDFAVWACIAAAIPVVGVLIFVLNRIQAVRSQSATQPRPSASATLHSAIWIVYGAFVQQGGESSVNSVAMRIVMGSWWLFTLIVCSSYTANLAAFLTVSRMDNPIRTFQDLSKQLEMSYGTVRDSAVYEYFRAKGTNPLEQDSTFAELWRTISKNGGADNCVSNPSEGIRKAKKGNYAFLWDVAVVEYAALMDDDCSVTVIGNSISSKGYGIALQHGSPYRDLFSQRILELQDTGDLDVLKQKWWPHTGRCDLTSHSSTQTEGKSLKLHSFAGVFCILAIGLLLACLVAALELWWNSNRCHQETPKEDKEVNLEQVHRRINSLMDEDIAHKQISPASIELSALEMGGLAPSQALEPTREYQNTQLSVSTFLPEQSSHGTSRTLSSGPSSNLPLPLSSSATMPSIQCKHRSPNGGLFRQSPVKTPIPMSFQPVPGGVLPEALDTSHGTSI

[1] = biological target: T2, mouse WT GluD1 (GluD1^WT) (mouse) (UniProt Q61627)
T2 sequence: T1 sequence with M732T

GluD1^R161H (mouse) = biological target: T3, GluD1^R161H (mouse) (UniProt Q61627)
T3 sequence: T1 sequence with R141H, M732T

Measured: binding

rat mGlu1a (from UniProt P23385 19-1199) (receptor)
binds: GluD1^T752M (mouse) | [1] | GluD1^R161H (mouse)
